From PubChem BioAssay AID2685 (National Center for Advancing Translational Sciences (NCATS), 2010) come the findings set out here.

This is one part of the list. These are further read-outs of the screen, such as a control signal, another cell line or another target. No call is given for them. Most of these compounds were active or inconclusive in the main read-out, so they are no random draw. The note in brackets gives the kind of curve behind each potency; many fits are weak.

A short description of this experiment: qHTS Assay for Lipid Storage Modulators in Drosophila S3 Cells.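 For cell number change: cells counted by Cell Tracker Red CMTPX staining in the red channel.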 Conditions: BODIPY lipid droplet fluorescence, 18-24 h; for cell number change: measured here: cell count max response, cells fed with added oleic acid. The gist of the method: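 Drosophila S3 cells loaded with oleic acid (400 uM, as added) and compounds at several concentrations; lipid droplets imaged by 488-nm laser-scanning cytometry, 500–530 nm intensity and object ratio to cell channel. Percent activity normalized to 20 uM Triacsin C.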
(In qHTS, concentration-response curves come from the screen itself.)

[1] abbreviates: measured here: lipid fluorescence (Fed channel) AC50, cells fed with added oleic acid.
The mark [2] stands for this setting: measured here: cell number channel AC50, cells fed with added oleic acid.

What is called AC50 is the midpoint of the concentration-response curve, whichever way the signal moves. Lower therefore signals activity at low concentration. On to `C=CCSc1nnc2nc3c(nn12)c1cc(C)ccc1n3CC=C`, for which the cell number change is -16.4%. For the same molecule, under setting [1], the AC50 is 0.146 µM [rising, full curve, poor fit]. In the case of `CCCCNC(=O)C1Cc2cc(S(=O)(=O)N3CCCCC3)ccc2N1C(C)=O` (stereo not given), the cell number change amounted to 1.47%. With `COc1ccccc1C(=O)Nc1ccc(C(=O)c2ccccc2)cc1`, the cell number change is -46.5%. Also, under setting [2], the AC50 was 16.4 µM [falling, single point]. Further, under setting [1], the AC50 is 29.1 µM [falling, single point]. Consider `CCN(c1ccccc1)S(=O)(=O)c1ccc2c(c1)N(C(C)=O)CCO2`, for which the cell number change came to 9.48%. Turning to `COC(=O)CCn1c(C)cc(C(=O)COc2ccccc2C(N)=O)c1C`, the cell number change is -16.6%. The AC50 under setting [1] is 0.461 µM [rising, full curve, poor fit]. For the molecule `CC(=O)Nc1nonc1NC(C)=O`, the cell number change stood at 4.81%. Also, the AC50 under setting [1] is 20.6 µM [falling, single point]. Regarding `CC(CN1C(C)CCCC1C)OC(=O)c1ccc(Cl)cc1` (stereo not given), under setting [1], the AC50 is 2.06 µM [falling, single point]. Take `CCCCOc1cccc(C(=O)N(Cc2ccco2)C2CCS(=O)(=O)C2)c1` (stereo not given): the cell number change was 58.3%. Also, under setting [2], the AC50 was 29.1 µM [rising, single point]. Further, under setting [1], the AC50 was 0.651 µM [falling, full curve, poor fit].

For the molecule `c1ccc(-c2nn3c(Cn4nnc5ccccc54)nnc3s2)nc1`, the AC50 under setting [2] is 2.31 µM [rising, partial curve] and the AC50 under setting [1] is 0.651 µM [rising, single point]. As for `c1cc2c(cc1Nc1nc(-c3ccc4c(c3)OCO4)cs1)OCCO2`, the AC50 under setting [2] was 0.731 µM [rising, partial curve, poor fit].

Turning to `COc1ccc(C(=O)Nc2ccnc(-c3cccnc3)n2)cc1`, the cell number change is 37.1%. With `O=C(N/N=C/c1cccc(Br)c1)C1CC(=O)N(c2ccccc2)C1` (stereo not given), the cell number change is 6.58%. The AC50 under setting [1] was 2.24 µM [falling, partial curve]. Turning to `CCCCOc1ccc(C(=O)Nc2ccc(S(=O)(=O)Nc3onc(C)c3C)cc2)cc1`, the cell number change was determined as 0.587%. For the same molecule, under setting [1], the AC50 is 0.0731 µM [rising, partial curve, poor fit]. Take `O/N=C1\CCCc2ccc(Cl)cc21`: the cell number change was -58.3%. Also, the AC50 under setting [2] was 20.6 µM [falling, partial curve, poor fit]. Turning to `Cc1nnc(SCCn2c(N3CCCC(C)C3)nc3c2c(=O)[nH]c(=O)n3C)s1` (stereo not given), the cell number change is -9.78%. Under setting [1], the AC50 was 6.51 µM [falling, single point]. Regarding `COc1cccc(N2CCN(C(=S)NCCc3ccccc3)CC2)c1`, the cell number change was determined as 124%. Moreover, the AC50 under setting [2] is 5.17 µM [rising, partial curve]. Besides, the AC50 under setting [1] is 7.31 µM [rising, partial curve]. `NS(=O)(=O)c1ccc(NS(=O)(=O)c2ccc(NC(=S)Nc3ccccc3)cc2)cc1`: the cell number change is -6.64%. Also, under setting [1], the AC50 is 0.0651 µM [falling, full curve, poor fit]. As to `O=C(OCC(=O)N1CCOCC1)c1cccc(S(=O)(=O)Nc2ccc(F)cc2)c1`, the cell number change is -7.71%. Besides, the AC50 under setting [1] is 9.2 µM [falling, partial curve, poor fit].

In the case of `CCNC(=O)COC(=O)c1ccc(-c2nc3ccccc3s2)s1`, under setting [1], the AC50 was 5.17 µM [falling, partial curve]. On to `O=C1C2C(C(=O)N1c1ccncc1)C1C=CC2C12CC2` (stereo not given), for which the cell number change is -25.6%. Regarding `COc1ccc(OC)c(CNS(=O)(=O)c2c(C)nc3scc(C)n3c2=O)c1`, the cell number change was -11.5%. In addition, the AC50 under setting [1] was 29.1 µM [rising, single point].

In the case of `CCN(CC(=O)Nc1cc(Cl)ccc1C)C(=O)c1ccc(N2CCCC2=O)cc1`, the cell number change was -1.04%. Consider `COc1ccc(NC(=O)/C=C/c2ccc(OC(F)F)cc2)cn1`, for which the cell number change came to 18.4%. Consider `CC(=O)c1cccc(NC(=O)C(C)OC(=O)C2CCC2)c1` (stereo not given), for which the cell number change is -31.4%. For the same molecule, the AC50 under setting [2] is 0.231 µM [falling, full curve]. For `COc1ccc(N2CCN(C(=O)C3CCCN(S(=O)(=O)c4ccc(F)cc4)C3)CC2)cc1` (stereo not given), the cell number change is -29.2%. In addition, the AC50 under setting [1] was 29.1 µM [falling, single point]. As for `CCN(CC(=O)Nc1ccc2c(c1)OCCO2)C(=O)/C=C/c1ccc(F)cc1`, the cell number change turned out to be 53.8%. Moreover, the AC50 under setting [2] is 11.6 µM [rising, partial curve]. Moreover, the AC50 under setting [1] is 16.4 µM [rising, single point]. Turning to `CCOc1ccc(N2CC(C(=O)Nc3ccc(S(=O)(=O)Nc4nccs4)cc3)CC2=O)cc1` (stereo not given), the cell number change was -23.1%. Consider `O=S(=O)(c1cccc(S(=O)(=O)N2CCOCC2)c1)N1CCCCCC1`, for which the cell number change was 0.259%. Under setting [1], the AC50 was 23.1 µM [falling, single point].

With `COc1ccc(C(CNC(=O)c2nn(-c3ccccc3)c(=O)c3ccccc23)N2CCOCC2)cc1` (stereo not given), the cell number change was -6%. Also, under setting [1], the AC50 is 4.11 µM [falling, single point].

Turning to `CN(C)c1ccc(/C=N/Nc2nc3ccccc3o2)cc1`, the cell number change was -14.1%. For the same molecule, the AC50 under setting [1] was 29.1 µM [falling, single point]. For `CC(=O)c1nccs1`, the cell number change was -5.2%. Under setting [1], the AC50 is 10.3 µM [rising, single point].

Turning to `CCOC(=O)C1=C(C)N(CC(C)C)C(=O)C1`, the cell number change was -12.1%. For the molecule `O=C(CSc1nnc(CN2CCCC2)n1-c1ccc(F)cc1)c1ccc2c(c1)OCO2`, under setting [2], the AC50 was 6.51 µM [rising, single point].

Regarding `CCN(CC)S(=O)(=O)c1ccc(N2CCCCC2)c(C(=O)Nc2ccccc2N2CCOCC2)c1`, the cell number change worked out at 22%. Besides, the AC50 under setting [1] is 29.1 µM [falling, single point]. As to `CC(C)C[C@@H](NC(=O)C1CCC(CNC(=O)[C@@H]2CCCN2C(=O)OC(C)(C)C)CC1)C(=O)O` (stereo not given in full), the cell number change is 20.6%.

In the case of `CCOC(=O)c1cc(NC(=O)c2ccc(Cl)cc2)c(=O)oc1-c1ccccc1`, the cell number change was -28.5%. Under setting [1], the AC50 was 3.66 µM [falling, full curve].

For `Cc1ccc(N(NC(=O)C(O)(c2ccccc2)c2ccccc2)C(=O)CCl)cc1`, the cell number change was -23.7%. Besides, under setting [1], the AC50 was 7.31 µM [falling, partial curve]. `Cc1ccccc1N1CCN(CCC(=O)Nc2ccc(F)cc2)CC1`: the cell number change was -10.9%. Turning to `CCc1ccccc1-n1nnnc1SCC(=O)Nc1cc(C)on1`, the cell number change turned out to be 7.26%. Besides, the AC50 under setting [2] was 1.46 µM [rising, partial curve]. For the molecule `COc1ccc(/C=C/C(=O)NC(=S)Nc2cc3oc4ccccc4c3cc2OC)cc1`, the cell number change stood at 33.3%. The AC50 under setting [2] is 29.1 µM [rising, single point].

Turning to `O=C(NNC(=O)C(c1ccccc1)c1ccccc1)c1cccs1`, the cell number change is -48.3%. Besides, the concentration at half-maximal activity (AC50) under setting [2] is 1.64 µM [falling, partial curve]. Moreover, the half-maximal activity concentration (AC50) under setting [1] is 1.84 µM [falling, partial curve].

Consider `Cc1cc(NS(=O)(=O)c2ccc(Nc3nc(-c4sc(C)nc4C)cs3)cc2)no1`, for which the cell number change is 44.1%. Further, the AC50 under setting [2] was 14.6 µM [rising, single point]. Turning to `Cc1cccc(C)c1OCCCCN1CCNCC1`, the cell number change was -8.24%. For the same molecule, the AC50 under setting [1] is 18.4 µM [rising, single point]. Regarding `COc1ccc(C2CC(c3ccccc3)=NN2C(=O)COC(=O)c2nc3nccc(C)n3n2)cc1` (stereo not given), the cell number change stood at 14.5%. For `COc1ccc2nc(C)cc(NCc3ccc(F)cc3)c2c1`, the cell number change turned out to be 236%. Also, the AC50 under setting [2] was 25.9 µM [rising, partial curve]. Moreover, the AC50 under setting [1] was 0.231 µM [falling, full curve, poor fit]. Consider `Cc1nn(-c2ccccc2)c2c1C1(C(=O)N(C)c3ccccc31)C(C#N)=C(N)O2` (stereo not given), for which the cell number change was -25.8%. In addition, the AC50 under setting [1] was 18.4 µM [falling, partial curve].

Turning to `Cc1ccc(C)c(-n2c(SCC(=O)NC(C(=O)O)C(C)C)nnc2-c2cccc(Cl)c2)c1` (stereo not given), the cell number change was -48.7%. For the same molecule, the AC50 under setting [2] was 25.9 µM [falling, single point]. The AC50 under setting [1] was 9.2 µM [falling, single point]. `O=C(NC1CC1)c1ccc(CSCc2ccccc2Cl)o1`: the cell number change was -13.2%. The AC50 under setting [1] is 0.13 µM [falling, full curve, poor fit]. Consider `COc1ccccc1C(=O)Nc1ccccc1N1CCN(C(=O)c2ccc(Cl)cc2)CC1`, for which the cell number change is -1.05%. In the case of `O=C(NC(NNc1ccc([N+](=O)[O-])cc1)(C(F)(F)F)C(F)(F)F)c1ccccc1Cl`, the AC50 by setting is: under setting [2], 2.06 µM [rising, single point]; under setting [1], 0.184 µM [rising, full curve, poor fit]. In the case of `COc1ccc(/C=C/C(=O)OC(C)CN2CCOCC2)cc1` (stereo not given), the cell number change was -20.3%. The AC50 under setting [1] was 29.1 µM [falling, single point]. For `O=C(Nc1ccccc1C(=O)NCCc1ccccc1)c1ccco1`, the cell number change worked out at 10.7%. Also, under setting [2], the AC50 was 4.11 µM [rising, single point]. The AC50 under setting [1] was 4.11 µM [rising, single point]. For the molecule `Cc1cc(=O)[nH]c(/N=C(\N)Nc2ccc(SC(F)F)cc2)n1`, the cell number change came to 12.9%. Moreover, the AC50 under setting [2] is 0.00517 µM [rising, full curve, poor fit]. Moreover, the AC50 under setting [1] is 1.16 µM [rising, partial curve]. Take `Cn1c(SCC(=O)NC(=O)NCc2ccccc2)nnc1C(F)(F)F`: the cell number change was determined as 38.5%. Further, the AC50 under setting [2] was 29.1 µM [rising, single point]. Besides, the AC50 under setting [1] was 23.1 µM [rising, partial curve, poor fit]. `CC(O)c1nc2ccccc2n1CC(=O)N1CCN(c2ccccc2)CC1` (stereo not given): the cell number change was 6.72%. Moreover, under setting [1], the AC50 was 0.259 µM [rising, partial curve, poor fit]. In the case of `Nc1nnc(SCC(=O)NNC(=O)c2ccc(F)cc2)s1`, the cell number change came to 15.1%.

`NC(=NCCc1c[nH]c2ccccc12)NC(=O)c1ccc(Cl)cc1`: the cell number change is -43.3%. Besides, under setting [2], the AC50 was 29.1 µM [falling, single point]. Also, the AC50 under setting [1] was 29.1 µM [falling, single point]. In the case of `CCCCCC(=O)NCC(C)NC(=O)CCCCC` (stereo not given), the cell number change was 3.16%. Under setting [1], the AC50 is 29.1 µM [falling, single point]. For `CCCCCn1c(=O)[nH]c2cc(C(=O)N3CCN(c4ccc(C(C)=O)cc4)CC3)ccc2c1=O`, the cell number change was -3.95%. The AC50 under setting [1] is 5.62 µM [rising, single point]. For `NS(=O)(=O)c1ccc(-c2ccc(C=NC3CCS(=O)(=O)C3)o2)cc1` (stereo not given), the cell number change is -1.61%. With `O=C(NC1CC1)C1CC(=O)N(c2cccc(Cl)c2Cl)C1` (stereo not given), the cell number change is 17.8%. Further, the AC50 under setting [1] was 5.8 µM [falling, single point].
